Results deposited as PubChem BioAssay AID1224830 (NIAID, 2016).

- Aim: 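Host factors that control LPS-induced TNF expression in human macrophages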 (primary screen)
- Cell system: human THP-1 monocytic leukaemia cells, TNF dual-luciferase reporter clone, PMA-differentiated to macrophage-like cells
- Knock-down reagent: siRNA pool against human genes, 50 nM
- Duration: LPS for 4 h, given about 3 days after siRNA transfection
- Challenge: bacterial LPS (TLR4 ligand), 10 ng/ml
- Measurement: 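TNF firefly reporter luminescence divided by renilla, normalised to the plate median, then turned into a robust z-score for each replicate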
- Direction: TNF reporter robust z-score: higher = stronger TNF reporter response to LPS
- Call rule: 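a well is active when its z-score exceeds 2.8 or falls below -1.5; control wells carry no call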
In all, the deposit lists about 18,000 reagents; shown is a random part of them. Over the whole deposit, about 2,900 (16%) got an active call. 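Calls are made per well; low scores hint the gene aids the LPS response, high scores that it dampens it.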 Repeated entries: four replicate wells of each siRNA pool.

target gene | TNF reporter robust z-score | activity call
RPS14 | 0.02 | inactive
RPS14 | 0.56 | inactive
RPS14 | -0.55 | inactive
RPS14 | 1.09 | inactive
EFHD1 | -0.39 | inactive
EFHD1 | -0.68 | inactive
EFHD1 | -0.12 | inactive
EFHD1 | -1.16 | inactive
TBL3 | -0.19 | inactive
TBL3 | -0.94 | inactive
TBL3 | 0.33 | inactive
TBL3 | -0.88 | inactive
CCZ1 | -0.71 | inactive
CCZ1 | 1.26 | inactive
CCZ1 | 0.24 | inactive
CCZ1 | 0.13 | inactive
KLHL7 | 1.11 | inactive
KLHL7 | 0.75 | inactive
KLHL7 | 0.42 | inactive
KLHL7 | 0.18 | inactive
NXPE4 | 0.68 | inactive
NXPE4 | 1.69 | inactive
NXPE4 | -0.63 | inactive
NXPE4 | 0.77 | inactive
PGLYRP1 | -0.22 | inactive
PGLYRP1 | -0.19 | inactive
PGLYRP1 | 0.17 | inactive
PGLYRP1 | 0.13 | inactive
PPP1R3A | 0.69 | inactive
PPP1R3A | -1.06 | inactive
PPP1R3A | 0.26 | inactive
PPP1R3A | 1.31 | inactive
RASL11B | 0.53 | inactive
RASL11B | 0.39 | inactive
RASL11B | 0.62 | inactive
RASL11B | 0.54 | inactive
TFPI | -0.8 | inactive
TFPI | -0.38 | inactive
TFPI | -0.92 | inactive
TFPI | -0.69 | inactive
GATD1 | -0.35 | inactive
GATD1 | -0.15 | inactive
GATD1 | 0.12 | inactive
GATD1 | -0.25 | inactive
CIMIP5 | -0.89 | inactive
CIMIP5 | -1.08 | inactive
CIMIP5 | -0.67 | inactive
CIMIP5 | -1.34 | inactive
MYOZ1 | -0.16 | inactive
MYOZ1 | 0.94 | inactive
MYOZ1 | -0.35 | inactive
MYOZ1 | 1.15 | inactive
TSSK4 | -0.88 | inactive
TSSK4 | -0.44 | inactive
TSSK4 | -1.17 | inactive
TSSK4 | 1.12 | inactive
GIPC1 | -0.69 | inactive
GIPC1 | 0.05 | inactive
GIPC1 | -0.34 | inactive
GIPC1 | -0.37 | inactive
UGT2B15 | -0.96 | inactive
UGT2B15 | -0.36 | inactive
UGT2B15 | -0.57 | inactive
UGT2B15 | 0.67 | inactive
NEGR1 | 0.17 | inactive
NEGR1 | -0.41 | inactive
NEGR1 | -1 | inactive
NEGR1 | 0.02 | inactive
HCRT | 0 | inactive
HCRT | 0.55 | inactive
HCRT | 0.89 | inactive
HCRT | 0.83 | inactive
CSTA | -1.74 | active
CSTA | -1.16 | inactive
CSTA | -1.3 | inactive
CSTA | -0.2 | inactive
GDF15 | -0.17 | inactive
GDF15 | 0.37 | inactive
GDF15 | 0.04 | inactive
GDF15 | -0.57 | inactive
ZNF638 | -0.02 | inactive
ZNF638 | 0.08 | inactive
ZNF638 | -0.84 | inactive
ZNF638 | 0.51 | inactive
EBAG9 | -0.5 | inactive
EBAG9 | 0.39 | inactive
EBAG9 | -0.43 | inactive
LMNB1 | 2.72 | inactive
LMNB1 | 2.91 | active
LMNB1 | 0 | inactive
LMNB1 | -0.07 | inactive
SAPCD2 | 2.54 | inactive
SAPCD2 | 1.24 | inactive
SAPCD2 | 2.23 | inactive
SAPCD2 | 6.41 | active
ZSWIM4 | -0.72 | inactive
ZSWIM4 | -0.47 | inactive
ZSWIM4 | -0.86 | inactive
ZSWIM4 | 0.66 | inactive
ENPP7 | -0.12 | inactive
ENPP7 | 2.42 | inactive
ENPP7 | 0.86 | inactive
ENPP7 | 0.12 | inactive
RER1 | 2.09 | inactive
RER1 | 0.68 | inactive
RER1 | 0.27 | inactive
RER1 | 0.46 | inactive
TLNRD1 | 0.03 | inactive
TLNRD1 | 0.4 | inactive
TLNRD1 | 0.12 | inactive
TLNRD1 | -0.17 | inactive

An excerpt from the list above, for reference:
target gene | TNF reporter robust z-score | activity call
PGLYRP1 | -0.19 | inactive
PGLYRP1 | 0.17 | inactive
PGLYRP1 | 0.13 | inactive
PPP1R3A | 0.69 | inactive
PPP1R3A | -1.06 | inactive
PPP1R3A | 0.26 | inactive
PPP1R3A | 1.31 | inactive
RASL11B | 0.53 | inactive
RASL11B | 0.39 | inactive
RASL11B | 0.62 | inactive
RASL11B | 0.54 | inactive
